According to publication PMC8028740:
These are yes or no findings as the source states them, for the method shown. Binding seen in cells or lysates may run through a third protein. Some results given as binding are weak or reduced against the parent protein; the word gives no strength.

B1: chromogranin A (protein, UniProt P10645 19-457)
chain: LPVNSPMNKGDTEVMKCIVEVISDTLSKPSPMPVSQECFETLRGDERILSILRHQNLLKELQDLALQGAKERAHQQKKHSGFEDELSEVLENQSSQAELKEAVEEPSSKDVMEKREDSKEAEKSGEATDGARPQALPEPMQESKAEGNNQAPGEEEEEEEEATNTHPPASLPSQKYPGPQAEGDSEGLSQGLVDREKGLSAEPGWQAKREEEEEEEEEAEAGEEAVPEEEGPTVVLNPHPSLGYKEIRKGESRSEALAVDGAGKPGAEEAQDPEGKGEQEHSQQKEEEEEMAVVPQGLFRGGKSGELEQEEERLSKEWEDSKRWSKMDQLAKELTAEKRLEGQEEEEDNRDSSMKLSFRARAYGFRGPGPQLRRGWRPSSREDSLEAGLPLQVRGYPEEKKEEEGSANRRPEDQELESLSAIEAELEKVAHQLQALRRG

Target: prion protein (PrP) (human (endogenous in autopsy pancreas and brain)) (UniProt P04156)
Assay: proximity ligation

| Molecule | binding |
| --- | --- |
| amylin (islet amyloid polypeptide) (from UniProt P10997 34-70) | binds |
| B1 | no binding |
